{
  "source": "patent US6472198B1",
  "about": "“Slow release substrates for driving microbial transformations of environmental contaminants” (The State of Oregon Acting by and through the State Board …, priority 1998, dated 2002)",
  "key": {"[1]": {"system": "enriched culture from activated aerobic sludge", "assay": "Aerobic biodegradation microcosms with enriched TBOS utilizing culture", "assay_type": "cell-based", "settings": "for aerobic biological degradation (in words): enriched culture from activated sludge"}, "[2]": {"system": "microbial culture grown on TBOS", "assay": "Aerobic cometabolism of TCE by microorganisms grown on TBOS", "assay_type": "cell-based", "description": "Gas phase TCE and cis-DCE concentrations were measured by injecting 10-100 μL of a gaseous sample into a HP-5890 gas chromatograph connected to a photoionization detector (PID) followed by a flame ionization detector (FID). Chromatographic separation was carried-out with a 30-m megabore GSQ-PLOT column from J&W Scientific (Folsom, Calif.). The GC operating conditions were as follows: injector temperature, 250° C.; detector temperature: 280° C.; the column was initially maintained at 40° C. for 2 minutes and then heated to 220° C. at 15° C./minute.\nThe microcosms for aerobic cometabolism studies were carried out as described in Example 1 under the heading “Aerobic Biodegradation.” The bacterial culture used was that described in Example 1 under the heading “Enrichment of Aerobic Culture.” cis-DCE and TCE stocks in water were prepared by saturating distilled water with cis-DCE and TCE at 30° C. […]\nMicrobial culture from the wastewater treatment plant of Corvallis, Oregon grown on TBOS was tested for its ability to cometabolize TCE and cis-DCE. […] Three microcosms and a control were evaluated: a poisoned control (i.e., a killed microcosm) with TBOS and TCE; a biologically active microcosm with TBOS and TCE; and a resting cell microcosm with only TCE; and an acetylene block microcosm with TBOS and TCE (having acetylene in the head space). […]"}},
  "data": [
    {"smiles": "CCCCO[Si](OCCCC)(OCCCC)OCCCC", "note": "[No. 2, Tetrabutoxysilane]", "values": [
      {"measurement": "CO2 produced with each addition of TBOS", "setting": "[1]; 100 mg/L TBOS additions, aerobic, enriched culture", "result": "Approximately 600 μmoles"},
      {"measurement": "average ratio of CO2 produced per TBOS degraded", "setting": "[1]; aerobic microcosm, enriched culture", "result": "10 moles of CO2 per mole of TBOS"},
      {"measurement": "time in which three additions of 100 mg/L were utilized", "setting": "[1]; biologically active culture, aerobic", "result": "≤ 30", "unit": "days"},
      {"measurement": "aerobic biological degradation (in words)", "setting": "[1]", "result": "completely mineralized to carbon dioxide"},
      {"measurement": "TBOS degradation in TCE microcosm (in words)", "setting": "[2]; TBOS 20 mg/L, 12 μmol", "result": "completely degraded"},
      {"measurement": "TBOS degradation in the presence of acetylene (in words)", "setting": "[2]; acetylene-blocked microcosm", "result": "not inhibited"}
    ]},
    {"smiles": "CCC(CC)CO[Si](OCC(CC)CC)(OCC(CC)CC)OCC(CC)CC", "note": "[No. 3, Tetrakis(2-ethylbutoxy) silane]", "values": [
      {"measurement": "aerobic biological degradation (in words)", "setting": "[1]", "result": "complete biological degradation occurred"}
    ]}
  ]
}
